Experimental data reported in paper doi:10.1101/581322.
Read-outs that look alike come from different tables or passages of the source. These are yes or no findings as the source states them, for the method shown. Binding seen in cells or lysates may run through a third protein. Some results given as binding are weak or reduced against the parent protein; the word gives no strength.

Amino acid sequences for entries named in this document (tags omitted).
UniProt Q9JKF1: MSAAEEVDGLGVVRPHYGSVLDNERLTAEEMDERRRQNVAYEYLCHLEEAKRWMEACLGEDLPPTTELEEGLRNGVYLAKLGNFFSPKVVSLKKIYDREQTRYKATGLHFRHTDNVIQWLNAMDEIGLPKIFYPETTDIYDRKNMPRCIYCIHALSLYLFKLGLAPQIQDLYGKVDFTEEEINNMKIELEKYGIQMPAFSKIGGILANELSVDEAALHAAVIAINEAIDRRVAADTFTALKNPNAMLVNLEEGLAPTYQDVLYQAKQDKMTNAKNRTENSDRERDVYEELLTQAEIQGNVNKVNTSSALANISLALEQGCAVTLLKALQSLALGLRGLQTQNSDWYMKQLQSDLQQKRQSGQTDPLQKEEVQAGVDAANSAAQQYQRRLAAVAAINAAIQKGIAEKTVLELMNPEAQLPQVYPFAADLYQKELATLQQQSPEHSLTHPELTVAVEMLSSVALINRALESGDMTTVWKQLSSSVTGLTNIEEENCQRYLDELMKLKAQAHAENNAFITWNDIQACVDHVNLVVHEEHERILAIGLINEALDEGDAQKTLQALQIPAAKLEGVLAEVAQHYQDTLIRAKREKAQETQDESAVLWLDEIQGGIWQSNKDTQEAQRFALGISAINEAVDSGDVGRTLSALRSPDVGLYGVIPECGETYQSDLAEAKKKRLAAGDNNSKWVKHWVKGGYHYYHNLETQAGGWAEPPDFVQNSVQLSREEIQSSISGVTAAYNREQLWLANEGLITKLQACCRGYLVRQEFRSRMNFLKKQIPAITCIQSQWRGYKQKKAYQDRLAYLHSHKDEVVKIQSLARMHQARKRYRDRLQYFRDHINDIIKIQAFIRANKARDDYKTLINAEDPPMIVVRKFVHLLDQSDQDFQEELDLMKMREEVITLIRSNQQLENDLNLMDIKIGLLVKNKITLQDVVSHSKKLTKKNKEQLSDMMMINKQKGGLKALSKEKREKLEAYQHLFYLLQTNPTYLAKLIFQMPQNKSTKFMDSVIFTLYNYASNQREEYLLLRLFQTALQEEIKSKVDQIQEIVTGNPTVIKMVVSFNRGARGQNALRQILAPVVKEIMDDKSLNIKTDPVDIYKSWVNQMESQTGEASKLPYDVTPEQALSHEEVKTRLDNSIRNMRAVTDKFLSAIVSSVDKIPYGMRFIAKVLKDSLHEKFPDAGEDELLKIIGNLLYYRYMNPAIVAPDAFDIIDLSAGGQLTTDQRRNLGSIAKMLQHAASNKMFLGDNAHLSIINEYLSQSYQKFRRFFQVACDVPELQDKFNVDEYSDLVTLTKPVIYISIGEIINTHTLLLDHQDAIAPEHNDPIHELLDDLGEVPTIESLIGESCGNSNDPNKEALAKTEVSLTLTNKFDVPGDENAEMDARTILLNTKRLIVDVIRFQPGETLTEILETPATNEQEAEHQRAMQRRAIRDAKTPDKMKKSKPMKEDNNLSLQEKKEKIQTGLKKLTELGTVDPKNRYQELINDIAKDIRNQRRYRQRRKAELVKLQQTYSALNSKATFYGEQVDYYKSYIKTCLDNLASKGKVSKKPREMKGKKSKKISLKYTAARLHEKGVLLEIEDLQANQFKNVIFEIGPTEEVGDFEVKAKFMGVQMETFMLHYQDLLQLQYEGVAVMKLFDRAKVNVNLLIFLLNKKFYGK

Assays:
Assay in all cases: co-IP
[1] = target: IQGAP1 (mouse (endogenous in mouse T cells)) (UniProt Q9JKF1)
[2] = target: full-length Yes-associated protein (FL FLAG-YAP) (human) (UniProt P46937)
[3] = target: IQGAP1 (mouse (endogenous in mouse T cells)) (UniProt Q9JKF1); remark: listed apart in the source

Measured: binding

B1: Nuclear Factor of Activated T cells 1 (NFAT1) (protein, UniProt Q60591 1-927)
chain: MDVPEPQPDPDGGDGPGHEPGGSPQDELDFSILFDYDYLNPIEEEPIAHKAISSPSGLAYPDDVLDYGLKPCNPLASLSGEPPGRFGEPDSIGFQNFLSPVKPAGASGPSPRIEITPSHELMQAGGALRGRDAGLSPEQPALALAGVAASPRFTLPVPGYEGYREPLCLSPASSGSSASFISDTFSPYTSPCVSPNNAGPDDLCPQFQNIPAHYSPRTSPIMSPRTSLAEDSCLGRHSPVPRPASRSSSPGAKRRHSCAEALVAPLPAASPQRSRSPSPQPSPHVALQDDSIPAGYPPTAGSAVLMDALNTLATDSPCGIPSKIWKTSPDPTPVSTAPSKAGLARHIYPTVEFLGPCEQEERRNSAPESILLVPPTWPKQLVPAIPICSIPVTASLPPLEWPLSNQSGSYELRIEVQPKPHHRAHYETEGSRGAVKAPTGGHPVVQLHGYMENKPLGLQIFIGTADERILKPHAFYQVHRITGKTVTTTSYEKIVGNTKVLEIPLEPKNNMRATIDCAGILKLRNADIELRKGETDIGRKNTRVRLVFRVHVPEPSGRIVSLQAASNPIECSQRSAHELPMVERQDMDSCLVYGGQQMILTGQNFTAESKVVFMEKTTDGQQIWEMEATVDKDKSQPNMLFVEIPEYRNKHIRVPVKVNFYVINGKRKRSQPQHFTYHPVPAIKTEPSDEYEPSLICSPAHGGLGSQPYYPQHPMLAESPSCLVATMAPCQQFRSGLSSPDARYQQQSPAAALYQRSKSLSPGLLGYQQPSLLAAPLGLADAHRSVLVHAGSQGQGQGSTLPHTSSASQQASPVIHYSPTNQQLRGGGHQEFQHIMYCENFGPSSARPGPPPINQGQRLSPGAYPTVIQQQTAPSQRAAKNGPSDQKEALPTGVTVKQEQNLDQTYLDDVNEIIRKEFSGPPSRNQT
modifications: phosphorylated (phospho-NFAT1 band; sites not given)
binds: all assays above
